The values below come from paper PMC10587169, “Tuning aminopolycarboxylate chelators for efficient complexation of trivalent actinides” (Scientific Reports, 2023).

Series [1] in a line: Slope analysis of liquid-liquid distribution data, ligand-to-metal stoichiometry. The format is binding. The conditions noted are these: all collected distribution data.
A short description of series [2]: Luminescence lifetime measurements, ligand-induced metal dehydration. The conditions noted are these: Eu3+ and H4pypa-peg mixture.
Series [3] is described as follows: Competitive complexation liquid-liquid extraction with HDEHP. The format is binding. Conditions: slope analysis. How it is done: Stability constants for the coordination of Eu^3+, Am^3+, Cm^3+, and Cf^3+ were also achieved by monitoring the suppression of liquid–liquid partitioning of the radiotracer due to the increasing presence of an aqueous complexant. Aqueous solutions were prepared containing sub-millimolar amounts of ligand while maintaining p[H^+] at 1.7, 1.8, 1.9, 2.0, and 2.1. Ionic strength was maintained at 2.00 M using sodium perchlorate. Aqueous complexation was balanced with the appropriate choice of HDEHP concentration in octane to allow accurate quantification of metal distribution. Non-aqueous phases were pre-equilibrated three times with 2.00 M NaClO4 at the corresponding p[H^+]. Preliminary time-dependent studies indicated the phase transfer equilibrium was attained for all measurements with H4octapa and H4pypa-peg (Figures S2 and S3 in the SI). For the mixtures traced with radioisotopes, the activity was measured using gamma spectroscopy (ORTEC GEM50P4 coaxial HPGe detector, DSPEC gamma spectrometer) for ^154Eu (123.07 keV), ^243Am (74.66 keV), and ^249Cf (388.17 keV) and liquid scintillation counting (Perkin Elmer Tri-Carb 3180 TR/SL) for ^248Cm. […]
Liquid–liquid partitioning of trivalent f-elements was monitored in presence of H4octapa and H4pypa-peg using a strong liquid cation exchanger, bis–(2-ethylhexyl)phosphoric acid, HDEHP. […]

`O=C(O)CN(CCN(CC(=O)O)Cc1cccc(C(=O)O)n1)Cc1cccc(C(=O)O)n1` [H4octapa, 6,6′-((ethane-1,2-diylbis–((carboxymethyl)azanediyl))bis–(methylene))dipicolinic acid] gave an average ligand-to-metal stoichiometry in series [1] of 1.00 ± 0.04.
Consider `O=C(O)CN(Cc1cc(-c2cn(CCOCCOCCO)nn2)cc(CN(CC(=O)O)Cc2cccc(C(=O)O)n2)n1)Cc1cccc(C(=O)O)n1` [H4pypa-peg, 6,6'-((((4-(1-(2-(2-(2-hydroxyethoxy)ethoxy)ethyl)-1H-1,2,3-triazol-4-yl)pyridine-2,6-diyl)bis–(methylene))bis–((carboxymethyl)azanediyl))bis–(methylene)) dipicolinic acid], for which, in series [1], the average ligand-to-metal stoichiometry came out at 1.00 ± 0.03. Also, the “calculated hydration number ηH2O (± 0.5) from τ1” value in series [2] (p[H+] 1.54) is listed as 1.7; in series [2] (p[H+] 1.99), 2.2; in series [2] (p[H+] 4.70), 0.8. Also, the “Luminescence lifetime decay τ1” value turned out to be 482.9 μs in series [2] (p[H+] 1.54, I = 2.00 M (H+,Na+)ClO4); 401.5 μs in series [2] (p[H+] 1.99, biexponential fit); 879.7 μs in series [2] (p[H+] 4.70). Further, the “calculated hydration number ηH2O (± 0.5) from τ2” value in series [2] (p[H+] 1.99) was 1.4. Also, the “Luminescence lifetime decay τ2” value in series [2] (p[H+] 1.99, biexponential fit) is listed as 557.9 μs.
Take `CCCCC(CC)COP(=O)(O)OCC(CC)CCCC` (stereo not drawn) [HDEHP, Bis(2-ethylhexyl)phosphoric acid]: the “stoichiometry for the extraction of trivalent metal ion by HDEHP” value was 2.85 ± 0.03 in series [3] (249Cf3+, for H4octapa (SI Figure S10B)) and 2.78 ± 0.13 in series [3] (for H4pypa-peg (SI Figure S11B)).
